Values quoted from earlier work in patent US8110565B2, “Enhanced drug delivery in transdermal systems” (Noven Pharmaceuticals, Inc., priority 2001, dated 2012).
Some entries share one result that the patent states for a list of compounds.

Details: parenteral administration; cited from earlier work

## CCCCCCC(=O)O[C@H]1CC[C@H]2[C@@H]3CCC4=CC(=O)CC[C@]4(C)[C@H]3CC[C@]12C [testosterone enanthate]
  therapeutic levels of parent drug sustained: 2-4 weeks
